Literature values as cited in patent US11639337B2, “Bicyclic heteroaryl derivatives and preparation and uses thereof” (XWPHARMA LTD., priority 2017, dated 2023).

Test system: metastatic melanoma
Details: Phase 2, patients with metastatic melanoma; cited from earlier work

In the case of `Nc1nc2ccc(OC(F)(F)F)cc2s1` [Riluzole], the “patients in whom metastasis was initially stabilized” value is given as 42%.
